Results: PMC12914105
These are yes or no findings as the source states them, for the method shown. Binding seen in cells or lysates may run through a third protein. Some binding calls cover weakened binding; strength is not graded here.

Amino acid sequences for entries named in this document (tags omitted). Residues count along the entry.
UniProt P08134: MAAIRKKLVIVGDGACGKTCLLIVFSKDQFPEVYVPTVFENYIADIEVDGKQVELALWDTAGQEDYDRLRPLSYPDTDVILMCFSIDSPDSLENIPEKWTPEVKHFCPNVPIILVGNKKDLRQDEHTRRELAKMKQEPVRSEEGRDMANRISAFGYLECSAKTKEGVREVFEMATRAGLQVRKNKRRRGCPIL
UniProt P14625, residues 22-803: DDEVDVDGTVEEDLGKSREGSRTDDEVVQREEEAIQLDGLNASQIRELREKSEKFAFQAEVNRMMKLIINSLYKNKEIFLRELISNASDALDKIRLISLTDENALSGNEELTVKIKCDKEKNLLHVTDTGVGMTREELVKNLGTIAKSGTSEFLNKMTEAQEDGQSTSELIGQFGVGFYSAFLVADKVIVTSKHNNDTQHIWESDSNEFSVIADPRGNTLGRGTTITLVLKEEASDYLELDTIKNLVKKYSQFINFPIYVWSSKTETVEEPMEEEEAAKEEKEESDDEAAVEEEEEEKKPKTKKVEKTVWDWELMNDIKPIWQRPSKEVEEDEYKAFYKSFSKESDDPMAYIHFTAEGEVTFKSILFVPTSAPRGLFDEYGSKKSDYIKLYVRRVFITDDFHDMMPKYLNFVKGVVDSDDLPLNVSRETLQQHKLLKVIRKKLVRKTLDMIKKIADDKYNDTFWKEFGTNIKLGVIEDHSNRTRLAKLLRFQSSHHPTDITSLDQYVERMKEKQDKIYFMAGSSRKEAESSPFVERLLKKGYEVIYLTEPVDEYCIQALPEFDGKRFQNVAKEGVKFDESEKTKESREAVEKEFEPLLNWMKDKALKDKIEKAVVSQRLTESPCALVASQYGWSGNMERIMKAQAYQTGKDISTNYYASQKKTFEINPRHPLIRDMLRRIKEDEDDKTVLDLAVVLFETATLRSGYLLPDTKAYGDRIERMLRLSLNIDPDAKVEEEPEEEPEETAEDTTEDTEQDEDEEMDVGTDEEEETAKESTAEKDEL

Assays:
Flag-tagged RhoC = Flag-tagged RhoC (UniProt P08134); assay: co-IP; Flag-tagged RhoC overexpressed in LN229 cells, immunoprecipitated with an anti-Flag antibody (lysis buffer 137 mM NaCl, 20 mM Tris-HCl pH 8, 1% NP-40, 2 mM EDTA); HSP90B1 detected by Western blot
[1] = molecular target: heat shock protein 90 beta family member 1 (HSP90B1) (human (endogenous in LN229)) (UniProt P14625); assay: co-IP; anti-HSP90B1 antibody added to cell lysate (137 mM NaCl, 20 mM Tris-HCl pH 8, 1% NP-40, 2 mM EDTA), 4 °C overnight, Protein A/G PLUS-Agarose; RhoC detected by Western blot; IgG control; cell line not stated

Substance | binding (Flag-tagged RhoC) | binding [1]
heat shock protein 90 beta family member 1 (HSP90B1) (from UniProt P14625 22-803) | binds | –
ras homolog family member C (RhoC) (from UniProt P08134 1-193) | – | binds
